Record: PubChem BioAssay AID1224830 (NIAID, 2016)
This is a random part of about 18,000 reagents. In the full data, about 2,900 (16%) got an active call. 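Calls are made per well; low scores hint the gene aids the LPS response, high scores that it dampens it.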 A number with no mark means an inactive call. Repeated entries: four replicate wells of each siRNA pool.

Purpose: 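Genes whose knock-down alters the TNF-alpha reporter response to LPS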 (primary screen)
Cells: human THP-1 monocytic leukaemia cells, TNF dual-luciferase reporter clone, PMA-differentiated to macrophage-like cells
Reagents: siRNA pool against human genes, 50 nM
Duration: LPS for 4 h, given about 3 days after siRNA transfection
Conditions: bacterial LPS (TLR4 ligand), 10 ng/ml
Read-out: 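Ratio of firefly to renilla light, scaled to the plate median and expressed as a robust z-score per replicate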
Scale: TNF reporter robust z-score: higher = stronger TNF reporter response to LPS
Active means: 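Each well counts as active if its z-score is over 2.8 or under -1.5; controls are left without a call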

Gene | TNF reporter robust z-score
CNIH4 (GeneID 29097) | -1.08
CNIH4 (GeneID 29097) | 0.1
CNIH4 (GeneID 29097) | 1.33
CNIH4 (GeneID 29097) | 0.78
DEFA3 (GeneID 1668) | 1.9
DEFA3 (GeneID 1668) | 3.69 (active)
DEFA3 (GeneID 1668) | 2.46
DEFA3 (GeneID 1668) | 4.06 (active)
NR2C1 (GeneID 7181) | 3.38 (active)
NR2C1 (GeneID 7181) | 2.2
NR2C1 (GeneID 7181) | 0.63
NR2C1 (GeneID 7181) | 3.71 (active)
GRAMD1C (GeneID 54762) | 0.11
GRAMD1C (GeneID 54762) | 1.32
GRAMD1C (GeneID 54762) | -0.28
GRAMD1C (GeneID 54762) | 0.52
CLPTM1 (GeneID 1209) | -0.35
CLPTM1 (GeneID 1209) | -0.09
CLPTM1 (GeneID 1209) | -0.24
CLPTM1 (GeneID 1209) | 0.12
UBXN10 (GeneID 127733) | -1.8 (active)
UBXN10 (GeneID 127733) | -1.49
UBXN10 (GeneID 127733) | -1.68 (active)
UBXN10 (GeneID 127733) | -1.77 (active)
PRSS33 (GeneID 260429) | -1.41
PRSS33 (GeneID 260429) | -0.22
PRSS33 (GeneID 260429) | -0.53
PRSS33 (GeneID 260429) | -0.1
VAX1 (GeneID 11023) | -0.34
VAX1 (GeneID 11023) | 0.91
VAX1 (GeneID 11023) | 1.74
VAX1 (GeneID 11023) | -1.09
CASR (GeneID 846) | 0.59
CASR (GeneID 846) | 1.09
CASR (GeneID 846) | 0.91
CASR (GeneID 846) | 0.86
COG6 (GeneID 57511) | -0.98
COG6 (GeneID 57511) | -0.82
COG6 (GeneID 57511) | -0.27
FBXO5 (GeneID 26271) | 1.7
FBXO5 (GeneID 26271) | 3.29 (active)
FBXO5 (GeneID 26271) | 1.92
FBXO5 (GeneID 26271) | 1.05
IL17RC (GeneID 84818) | -0.42
IL17RC (GeneID 84818) | -0.16
IL17RC (GeneID 84818) | 0.49
IL17RC (GeneID 84818) | -0.36
CFHR5 (GeneID 81494) | 0.12
CFHR5 (GeneID 81494) | 0.96
CFHR5 (GeneID 81494) | 0.73
CFHR5 (GeneID 81494) | 0.68
PAGR1 (GeneID 79447) | -0.77
PAGR1 (GeneID 79447) | 0.4
PAGR1 (GeneID 79447) | -0.27
PAGR1 (GeneID 79447) | -0.72
IMP4 (GeneID 92856) | 0.72
IMP4 (GeneID 92856) | 1.61
IMP4 (GeneID 92856) | 0.94
IMP4 (GeneID 92856) | 1.19
AKAP11 (GeneID 11215) | -0.47
AKAP11 (GeneID 11215) | -0.44
AKAP11 (GeneID 11215) | -0.39
AKAP11 (GeneID 11215) | -0.01
LCMT2 (GeneID 9836) | -0.65
LCMT2 (GeneID 9836) | 1.88
LCMT2 (GeneID 9836) | 1.4
LCMT2 (GeneID 9836) | 1.05
CYB5D2 (GeneID 124936) | 0.35
CYB5D2 (GeneID 124936) | 0.07
CYB5D2 (GeneID 124936) | 0.86
TDRD1 (GeneID 56165) | -1.32
TDRD1 (GeneID 56165) | -1.2
TDRD1 (GeneID 56165) | -0.72
TDRD1 (GeneID 56165) | -0.7
CLEC14A (GeneID 161198) | -0.02
CLEC14A (GeneID 161198) | 0.84
CLEC14A (GeneID 161198) | -0.12
CLEC14A (GeneID 161198) | 0.7
